Measurements from the supplement of paper PMC10849652.
The list shows a part of the results.

Protein sequences, listed by entry. Tags and fused reporters are not part of them. Lines headed by an entry give the natural chain unless they say otherwise; changes in a name come on top.
UniProt Q6UXV4: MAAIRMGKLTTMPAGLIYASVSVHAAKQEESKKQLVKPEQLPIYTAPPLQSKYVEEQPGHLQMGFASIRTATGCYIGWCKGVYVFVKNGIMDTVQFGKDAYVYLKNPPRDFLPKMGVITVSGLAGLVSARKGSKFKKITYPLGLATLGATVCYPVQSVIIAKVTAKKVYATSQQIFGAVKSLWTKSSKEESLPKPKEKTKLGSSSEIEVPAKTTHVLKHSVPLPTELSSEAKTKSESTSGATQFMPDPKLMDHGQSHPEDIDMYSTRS
UniProt Q66PJ3: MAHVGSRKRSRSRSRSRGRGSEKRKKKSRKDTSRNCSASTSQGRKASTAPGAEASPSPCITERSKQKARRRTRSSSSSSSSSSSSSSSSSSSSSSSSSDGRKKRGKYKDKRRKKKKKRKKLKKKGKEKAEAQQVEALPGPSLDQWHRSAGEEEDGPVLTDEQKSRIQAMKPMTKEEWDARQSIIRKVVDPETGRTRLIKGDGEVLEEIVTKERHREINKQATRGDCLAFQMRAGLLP
UniProt Q9UH62: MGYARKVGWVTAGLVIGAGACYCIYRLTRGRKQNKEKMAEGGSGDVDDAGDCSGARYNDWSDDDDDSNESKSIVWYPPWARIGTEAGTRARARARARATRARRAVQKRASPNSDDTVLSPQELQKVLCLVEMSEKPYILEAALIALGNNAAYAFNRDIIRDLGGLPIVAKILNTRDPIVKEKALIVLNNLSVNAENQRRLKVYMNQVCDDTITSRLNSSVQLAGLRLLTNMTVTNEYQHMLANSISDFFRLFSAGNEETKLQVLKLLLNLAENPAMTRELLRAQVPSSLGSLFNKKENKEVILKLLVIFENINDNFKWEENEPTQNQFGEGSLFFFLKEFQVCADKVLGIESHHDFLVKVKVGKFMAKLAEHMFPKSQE
UniProt Q9Y2Y0: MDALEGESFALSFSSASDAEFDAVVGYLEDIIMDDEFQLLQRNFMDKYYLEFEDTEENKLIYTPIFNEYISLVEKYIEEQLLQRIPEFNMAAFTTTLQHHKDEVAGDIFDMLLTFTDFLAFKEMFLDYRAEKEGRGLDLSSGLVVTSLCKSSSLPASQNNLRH
UniProt P36404: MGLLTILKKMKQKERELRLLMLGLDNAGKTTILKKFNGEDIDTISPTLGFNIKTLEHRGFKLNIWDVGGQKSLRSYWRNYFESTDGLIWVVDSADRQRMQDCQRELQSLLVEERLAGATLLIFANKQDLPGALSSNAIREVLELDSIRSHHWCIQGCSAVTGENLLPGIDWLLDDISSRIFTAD
UniProt Q07960: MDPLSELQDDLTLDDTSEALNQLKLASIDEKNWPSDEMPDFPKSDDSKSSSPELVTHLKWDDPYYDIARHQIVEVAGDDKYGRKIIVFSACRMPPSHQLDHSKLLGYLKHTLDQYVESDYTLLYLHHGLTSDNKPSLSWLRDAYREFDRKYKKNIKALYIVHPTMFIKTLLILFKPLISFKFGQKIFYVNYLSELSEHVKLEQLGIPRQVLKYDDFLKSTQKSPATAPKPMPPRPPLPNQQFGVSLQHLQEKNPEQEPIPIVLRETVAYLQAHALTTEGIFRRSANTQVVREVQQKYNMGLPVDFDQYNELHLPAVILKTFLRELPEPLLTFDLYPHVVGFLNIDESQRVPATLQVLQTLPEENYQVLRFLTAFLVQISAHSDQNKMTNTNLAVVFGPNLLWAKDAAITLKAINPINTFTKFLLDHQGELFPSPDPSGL
UniProt Q8N5I2: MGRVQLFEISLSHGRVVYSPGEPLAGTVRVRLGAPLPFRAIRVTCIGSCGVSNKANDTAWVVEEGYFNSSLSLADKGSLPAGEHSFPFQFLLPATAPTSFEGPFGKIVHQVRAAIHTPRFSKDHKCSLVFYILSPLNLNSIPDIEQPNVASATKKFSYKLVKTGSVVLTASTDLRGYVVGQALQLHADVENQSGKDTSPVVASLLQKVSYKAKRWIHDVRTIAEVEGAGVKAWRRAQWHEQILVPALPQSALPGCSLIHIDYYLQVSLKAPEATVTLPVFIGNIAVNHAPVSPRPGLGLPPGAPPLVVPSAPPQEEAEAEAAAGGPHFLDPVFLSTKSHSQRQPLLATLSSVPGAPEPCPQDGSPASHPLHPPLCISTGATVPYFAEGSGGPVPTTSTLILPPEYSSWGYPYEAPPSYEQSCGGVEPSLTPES
UniProt Q92619: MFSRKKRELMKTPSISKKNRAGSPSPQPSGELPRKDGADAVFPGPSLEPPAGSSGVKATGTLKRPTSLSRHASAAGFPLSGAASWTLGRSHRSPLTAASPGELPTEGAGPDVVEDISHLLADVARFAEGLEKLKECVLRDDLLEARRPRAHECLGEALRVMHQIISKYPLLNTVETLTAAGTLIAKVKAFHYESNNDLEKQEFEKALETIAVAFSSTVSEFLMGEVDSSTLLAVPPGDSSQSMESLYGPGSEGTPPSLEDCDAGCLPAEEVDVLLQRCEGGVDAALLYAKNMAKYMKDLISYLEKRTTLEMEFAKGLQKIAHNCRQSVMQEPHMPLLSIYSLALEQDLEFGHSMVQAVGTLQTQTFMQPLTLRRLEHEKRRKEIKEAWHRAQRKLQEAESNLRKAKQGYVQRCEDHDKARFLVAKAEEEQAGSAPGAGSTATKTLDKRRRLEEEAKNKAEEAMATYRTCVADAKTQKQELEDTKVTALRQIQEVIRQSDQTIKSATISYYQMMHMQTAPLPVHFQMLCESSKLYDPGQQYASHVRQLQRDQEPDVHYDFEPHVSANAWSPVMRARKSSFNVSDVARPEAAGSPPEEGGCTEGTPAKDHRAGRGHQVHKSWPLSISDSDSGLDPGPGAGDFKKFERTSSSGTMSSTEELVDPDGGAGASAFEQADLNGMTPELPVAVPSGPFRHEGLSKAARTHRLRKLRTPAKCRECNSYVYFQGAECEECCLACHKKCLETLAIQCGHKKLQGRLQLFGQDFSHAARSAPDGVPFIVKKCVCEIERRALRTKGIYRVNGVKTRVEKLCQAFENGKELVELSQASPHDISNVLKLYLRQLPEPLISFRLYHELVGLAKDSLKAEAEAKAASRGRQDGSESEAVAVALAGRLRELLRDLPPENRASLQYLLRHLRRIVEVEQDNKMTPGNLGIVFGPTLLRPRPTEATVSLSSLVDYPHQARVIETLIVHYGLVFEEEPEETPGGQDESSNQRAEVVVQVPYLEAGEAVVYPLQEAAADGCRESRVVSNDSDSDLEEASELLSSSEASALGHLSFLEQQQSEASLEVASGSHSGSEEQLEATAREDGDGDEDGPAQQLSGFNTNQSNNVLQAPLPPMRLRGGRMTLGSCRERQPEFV
UniProt O15085: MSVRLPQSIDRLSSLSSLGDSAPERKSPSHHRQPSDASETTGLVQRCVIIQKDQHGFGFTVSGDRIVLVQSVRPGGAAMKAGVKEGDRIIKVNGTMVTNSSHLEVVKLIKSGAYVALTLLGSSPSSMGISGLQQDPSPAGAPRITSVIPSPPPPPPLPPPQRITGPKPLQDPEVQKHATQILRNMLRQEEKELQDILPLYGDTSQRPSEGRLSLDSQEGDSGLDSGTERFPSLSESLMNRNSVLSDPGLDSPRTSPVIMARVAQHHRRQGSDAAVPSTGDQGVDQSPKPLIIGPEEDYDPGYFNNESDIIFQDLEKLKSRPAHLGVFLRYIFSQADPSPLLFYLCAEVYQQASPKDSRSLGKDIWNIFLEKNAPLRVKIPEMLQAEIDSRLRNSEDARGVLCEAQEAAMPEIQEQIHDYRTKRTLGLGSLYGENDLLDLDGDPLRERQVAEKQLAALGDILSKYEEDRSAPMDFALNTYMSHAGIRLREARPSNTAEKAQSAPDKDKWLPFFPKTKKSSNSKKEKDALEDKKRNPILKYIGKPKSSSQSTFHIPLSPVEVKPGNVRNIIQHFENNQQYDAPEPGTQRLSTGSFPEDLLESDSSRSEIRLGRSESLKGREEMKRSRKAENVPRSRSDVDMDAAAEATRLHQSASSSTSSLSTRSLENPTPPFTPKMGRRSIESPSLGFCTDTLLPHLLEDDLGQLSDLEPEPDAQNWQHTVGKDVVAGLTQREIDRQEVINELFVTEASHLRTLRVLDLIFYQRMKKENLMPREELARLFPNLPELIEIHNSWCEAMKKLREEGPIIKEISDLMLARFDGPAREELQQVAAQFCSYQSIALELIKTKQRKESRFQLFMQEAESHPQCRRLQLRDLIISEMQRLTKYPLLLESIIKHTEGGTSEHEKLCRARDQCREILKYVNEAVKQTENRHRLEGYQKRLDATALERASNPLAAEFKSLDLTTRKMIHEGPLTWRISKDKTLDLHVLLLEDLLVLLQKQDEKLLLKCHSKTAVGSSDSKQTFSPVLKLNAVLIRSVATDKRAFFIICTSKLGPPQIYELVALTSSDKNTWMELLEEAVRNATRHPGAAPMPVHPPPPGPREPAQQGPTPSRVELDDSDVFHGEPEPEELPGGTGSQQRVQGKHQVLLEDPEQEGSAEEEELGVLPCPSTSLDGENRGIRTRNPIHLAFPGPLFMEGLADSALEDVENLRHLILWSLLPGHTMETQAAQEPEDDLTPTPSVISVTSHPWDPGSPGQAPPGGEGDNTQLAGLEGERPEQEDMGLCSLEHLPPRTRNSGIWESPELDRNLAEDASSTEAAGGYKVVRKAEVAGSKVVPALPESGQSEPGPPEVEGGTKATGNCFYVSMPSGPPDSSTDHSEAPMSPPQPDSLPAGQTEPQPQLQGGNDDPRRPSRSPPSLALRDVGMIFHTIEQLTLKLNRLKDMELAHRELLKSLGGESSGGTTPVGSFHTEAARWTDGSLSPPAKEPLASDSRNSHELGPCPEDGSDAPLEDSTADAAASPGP
UniProt P78540: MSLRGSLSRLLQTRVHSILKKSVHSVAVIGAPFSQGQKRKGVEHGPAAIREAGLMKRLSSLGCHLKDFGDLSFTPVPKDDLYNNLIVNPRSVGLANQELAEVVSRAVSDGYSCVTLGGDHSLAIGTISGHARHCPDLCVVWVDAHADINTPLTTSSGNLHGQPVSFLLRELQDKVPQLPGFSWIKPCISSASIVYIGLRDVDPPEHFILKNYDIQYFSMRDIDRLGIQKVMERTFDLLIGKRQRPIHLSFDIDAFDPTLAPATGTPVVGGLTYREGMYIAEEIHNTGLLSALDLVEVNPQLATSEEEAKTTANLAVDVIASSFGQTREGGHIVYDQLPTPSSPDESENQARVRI
UniProt O15013: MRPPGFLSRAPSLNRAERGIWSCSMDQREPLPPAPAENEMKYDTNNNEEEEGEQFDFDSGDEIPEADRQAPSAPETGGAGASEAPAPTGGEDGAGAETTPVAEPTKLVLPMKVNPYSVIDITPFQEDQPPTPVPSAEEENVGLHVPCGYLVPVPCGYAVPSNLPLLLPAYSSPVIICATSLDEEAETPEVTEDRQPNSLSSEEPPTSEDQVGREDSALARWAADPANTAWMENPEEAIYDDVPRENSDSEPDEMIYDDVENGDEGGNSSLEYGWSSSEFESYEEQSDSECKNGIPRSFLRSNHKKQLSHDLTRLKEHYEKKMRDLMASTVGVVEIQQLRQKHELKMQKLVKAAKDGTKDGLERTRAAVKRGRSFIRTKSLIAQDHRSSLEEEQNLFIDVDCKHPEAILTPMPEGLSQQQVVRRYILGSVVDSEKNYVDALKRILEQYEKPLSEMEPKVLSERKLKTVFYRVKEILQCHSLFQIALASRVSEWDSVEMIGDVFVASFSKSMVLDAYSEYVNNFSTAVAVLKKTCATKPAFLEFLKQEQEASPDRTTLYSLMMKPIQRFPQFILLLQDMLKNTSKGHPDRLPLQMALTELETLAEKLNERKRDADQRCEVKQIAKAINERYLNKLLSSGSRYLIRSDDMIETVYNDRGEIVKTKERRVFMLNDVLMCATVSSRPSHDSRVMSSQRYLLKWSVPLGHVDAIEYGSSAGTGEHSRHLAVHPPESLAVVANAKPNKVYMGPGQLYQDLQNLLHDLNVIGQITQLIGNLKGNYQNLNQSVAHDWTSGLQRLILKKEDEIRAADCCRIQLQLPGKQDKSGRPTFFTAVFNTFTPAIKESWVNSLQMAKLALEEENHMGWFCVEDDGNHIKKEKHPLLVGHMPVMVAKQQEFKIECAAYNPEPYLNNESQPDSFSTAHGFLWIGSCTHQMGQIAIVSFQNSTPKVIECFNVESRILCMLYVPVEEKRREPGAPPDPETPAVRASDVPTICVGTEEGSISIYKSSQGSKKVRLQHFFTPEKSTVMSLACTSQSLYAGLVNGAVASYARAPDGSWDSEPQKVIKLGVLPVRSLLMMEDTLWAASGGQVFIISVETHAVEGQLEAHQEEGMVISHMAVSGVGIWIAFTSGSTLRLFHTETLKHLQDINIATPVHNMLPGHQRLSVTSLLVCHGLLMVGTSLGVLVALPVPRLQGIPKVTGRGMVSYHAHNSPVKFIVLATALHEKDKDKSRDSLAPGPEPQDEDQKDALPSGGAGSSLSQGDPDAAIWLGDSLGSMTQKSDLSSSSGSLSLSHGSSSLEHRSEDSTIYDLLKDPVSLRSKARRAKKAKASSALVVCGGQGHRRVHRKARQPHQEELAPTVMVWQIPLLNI

Legend:
Test in all cases: log2 fold change, soluble protein after heating vs DMSO (PISA); higher = thermal stabilisation; K562 lysate, 10 uM; active = over 0.2 and 3.5 SD of the protein, either way, in both replicates (recomputed)
nilotinib = compound: Cc1cn(-c2cc(NC(=O)c3ccc(C)c(Nc4nccc(-c5cccnc5)n4)c3)cc(C(F)(F)F)c2)cn1 [nilotinib]
Outline: (§1)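 Quantification was by TMTpro 16plex LC-MS/MS with equalised channel sums, applied to the supernatant after 21,000xg for 90 min. Samples were crude K562 extract at 1 mg/mL protein in PBS pH 7.4 with 1 mM MgCl2, treated with 10 μM compound for 30 min, heated for 3 min across 48°C-58°C, pooled and brought to 0.5% NP-40 at 4°C. Values are log-two fold changes in thermal stability relative to solvent controls, from duplicates.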

[1] = compound: Cc1nc(Nc2n[nH]c3c2CN(C(=O)N[C@H](CN(C)C)c2ccccc2)C3(C)C)c2sccc2n1
Outline: as §1

dasatinib = compound: Cc1nc(Nc2ncc(C(=O)Nc3c(C)cccc3Cl)s2)cc(N2CCN(CCO)CC2)n1 [dasatinib]
Outline: as §1

[2] = compound: Cc1ncc(-c2ccnc(Nc3ccc(S(C)(=O)=O)cc3)n2)n1C(C)C
Outline: as §1

[3] = compound: Cn1cc(-c2ccc3c(c2)CCN3C(=O)Cc2cccc(C(F)(F)F)c2)c2c(N)ncnc21
Outline: as §1

quisinostat = compound: Cn1cc(CNCC2CCN(c3ncc(C(=O)NO)cn3)CC2)c2ccccc21 [quisinostat]
Outline: as §1

tipifarnib = compound: Cn1cncc1[C@@](N)(c1ccc(Cl)cc1)c1ccc2c(c1)c(-c1cccc(Cl)c1)cc(=O)n2C [tipifarnib]
Outline: as §1

[4] = compound: NC(=O)Nc1cc(-c2cccc(F)c2)sc1C(=O)N[C@H]1CCCNC1
Outline: as §1

[5] = compound: NC(=O)c1cnc(N[C@@H]2CCCC[C@@H]2N)nc1Nc1cccc(-n2nccn2)c1
Outline: as §1

[6] = compound: NC1(c2ccc(-c3nc4ccn5c(=O)[nH]nc5c4cc3-c3ccccc3)cc2)CCC1
Outline: as §1

[7] = compound: NCC(=O)Nc1ccc(-n2nc(C(F)(F)F)cc2-c2ccc3c(ccc4ccccc43)c2)cc1
Outline: as §1

vorinostat = compound: O=C(CCCCCCC(=O)Nc1ccccc1)NO [vorinostat]
Outline: as §1

silmitasertib = compound: O=C(O)c1ccc2c(c1)nc(Nc1cccc(Cl)c1)c1ccncc12 [silmitasertib]
Outline: as §1

[8] = compound: O=C1NC(=O)C(c2cnc3ccccn23)=C1c1cn2c3c(cc(F)cc13)CN(C(=O)N1CCCCC1)CC2
Outline: as §1

entospletinib = compound: c1cn2cc(-c3ccc4cn[nH]c4c3)nc(Nc3ccc(N4CCOCC4)cc3)c2n1 [entospletinib]
Outline: as §1

Measured: log2 fold change

APOOL (UniProt Q6UXV4)
inactive: nilotinib 0.007 | [1] -0.01 | dasatinib -0.014 | [2] 0.002 | [3] -0.03 | quisinostat -0.002 | tipifarnib 0.032 | [4] 0.004 | [5] -0.028 | [6] 0.009 | [7] 0.003 | vorinostat 0.015 | silmitasertib -0.022 | [8] -0.014 | entospletinib 0.04

ARL6IP4 (UniProt Q66PJ3)
inactive: nilotinib -0.002 | [1] 0.003 | dasatinib 0.022 | [2] 0.068 | [3] -0.039 | quisinostat 0.042 | tipifarnib 0.004 | [4] -0.004 | [5] -0.018 | [6] -0.037 | [7] 0.049 | vorinostat 0.011 | silmitasertib 0.002 | [8] -0.001 | entospletinib -0.084

AQR (UniProt O60306)
inactive: nilotinib -0.049 | [1] 0.015 | dasatinib -0.005 | [2] 0.031 | [3] 0.014 | quisinostat -0.062 | tipifarnib -0.018 | [4] 0.02 | [5] 0.001 | [6] -0.039 | [7] 0.039 | vorinostat -0.125 | silmitasertib 0.037 | [8] -0.004 | entospletinib 0.022

ARMCX3 (UniProt Q9UH62)
active: vorinostat -0.279
inactive: nilotinib 0.023 | [1] -0.028 | dasatinib -0.107 | [2] -0.003 | [3] 0.067 | quisinostat -0.057 | tipifarnib -0.008 | [4] 0.04 | [5] 0.008 | [6] -0.002 | [7] 0.042 | silmitasertib 0.036 | [8] -0.024 | entospletinib 0.047

Two entries drawn at random from those above:
ARL6IP4 (UniProt Q66PJ3)
inactive: nilotinib -0.002 | [1] 0.003 | dasatinib 0.022 | [2] 0.068 | [3] -0.039 | quisinostat 0.042 | tipifarnib 0.004 | [4] -0.004 | [5] -0.018 | [6] -0.037 | [7] 0.049 | vorinostat 0.011 | silmitasertib 0.002 | [8] -0.001 | entospletinib -0.084

APOOL (UniProt Q6UXV4)
inactive: nilotinib 0.007 | [1] -0.01 | dasatinib -0.014 | [2] 0.002 | [3] -0.03 | quisinostat -0.002 | tipifarnib 0.032 | [4] 0.004 | [5] -0.028 | [6] 0.009 | [7] 0.003 | vorinostat 0.015 | silmitasertib -0.022 | [8] -0.014 | entospletinib 0.04

Later entries

ARL2BP (UniProt Q9Y2Y0)
inactive: nilotinib -0.067 | [1] 0.019 | dasatinib -0.067 | [2] 0.014 | [3] -0.019 | quisinostat -0.165 | tipifarnib -0.067 | [4] 0.003 | [5] -0.009 | [6] -0.044 | [7] 0.045 | vorinostat -0.077 | silmitasertib 0.027 | [8] -0.012 | entospletinib 0.052

ARL2 (UniProt P36404)
inactive: nilotinib 0.038 | [1] -0.002 | dasatinib -0.029 | [2] -0.01 | [3] 0.025 | quisinostat -0.003 | tipifarnib 0.011 | [4] 0.021 | [5] 0.017 | [6] 0.007 | [7] 0 | vorinostat -0.113 | silmitasertib 0.002 | [8] -0.01 | entospletinib -0.045

ASAH1 isoform 2 (UniProt Q13510)
inactive: nilotinib 0.041 | [1] 0.061 | dasatinib 0.017 | [2] -0.068 | [3] 0.009 | quisinostat -0.109 | tipifarnib -0.021 | [4] 0.019 | [5] -0.071 | [6] 0.032 | [7] -0.036 | vorinostat -0.111 | silmitasertib -0.03 | [8] -0.043 | entospletinib 0.051

ARHGAP1 (UniProt Q07960)
inactive: nilotinib 0.007 | [1] 0.012 | dasatinib 0.049 | [2] -0.029 | [3] 0.014 | quisinostat 0.069 | tipifarnib 0.038 | [4] -0.008 | [5] -0.026 | [6] 0.006 | [7] 0.03 | vorinostat 0.149 | silmitasertib -0.029 | [8] -0.017 | entospletinib 0.028

ARID3A (UniProt Q99856)
inactive: nilotinib 0.008 | [1] 0.005 | dasatinib -0.037 | [2] 0.002 | [3] 0.008 | quisinostat -0.004 | tipifarnib 0.016 | [4] 0.018 | [5] 0.07 | [6] 0.033 | [7] 0.003 | vorinostat -0.107 | silmitasertib 0.014 | [8] 0.03 | entospletinib -0.025

ARMC6 (UniProt Q6NXE6)
active: vorinostat -0.422
inactive: nilotinib -0.001 | [1] -0.006 | dasatinib -0.055 | [2] -0.017 | [3] 0.013 | quisinostat -0.057 | tipifarnib 0 | [4] 0.094 | [5] 0.017 | [6] -0.031 | [7] -0.011 | silmitasertib 0.02 | [8] -0.006 | entospletinib 0.011

ARRDC1 (UniProt Q8N5I2)
inactive: nilotinib 0.251 | [1] -0.076 | dasatinib 0.012 | [2] 0.27 | [3] 0.039 | quisinostat 0.147 | tipifarnib -0.003 | [4] -0.032 | [5] -0.014 | [6] -0.112 | [7] -0.004 | vorinostat -0.013 | silmitasertib 0.019 | [8] 0.041 | entospletinib -0.087

ARHGAP45 isoform 2 (UniProt Q92619)
inactive: nilotinib -0.003 | [1] -0.002 | dasatinib -0.047 | [2] 0.048 | [3] 0.028 | quisinostat 0.013 | tipifarnib -0.036 | [4] 0.011 | [5] -0.003 | [6] 0.015 | [7] -0.028 | vorinostat -0.093 | silmitasertib -0.004 | [8] 0.048 | entospletinib -0.014

ARHGEF11 isoform 2 (UniProt O15085)
inactive: nilotinib 0.01 | [1] -0.015 | dasatinib 0.051 | [2] 0.001 | [3] -0.004 | quisinostat -0.01 | tipifarnib 0.002 | [4] 0.053 | [5] 0.031 | [6] 0.03 | [7] 0.026 | vorinostat -0.11 | silmitasertib 0.044 | [8] 0.005 | entospletinib -0.042

ARG2 (UniProt P78540)
inactive: nilotinib -0.045 | [1] 0.008 | dasatinib -0.024 | [2] -0.035 | [3] 0.002 | quisinostat -0.071 | tipifarnib -0.057 | [4] 0.021 | [5] -0.002 | [6] -0.015 | [7] 0.024 | vorinostat 0.143 | silmitasertib -0.037 | [8] -0.003 | entospletinib -0.033

ARL15 (UniProt Q9NXU5)
inactive: nilotinib -0.008 | [1] 0.021 | dasatinib -0.063 | [2] -0.046 | [3] 0.036 | quisinostat 0.024 | tipifarnib 0.031 | [4] -0.034 | [5] 0.021 | [6] 0.022 | [7] 0.007 | vorinostat -0.109 | silmitasertib 0.016 | [8] -0.029 | entospletinib 0.014

ARPC4 isoform 3 (UniProt P59998)
inactive: nilotinib -0.004 | [1] -0.017 | dasatinib 0.012 | [2] -0.019 | [3] 0.008 | quisinostat 0.034 | tipifarnib 0.01 | [4] -0.045 | [5] 0.001 | [6] 0.003 | [7] -0.025 | vorinostat 0.109 | silmitasertib 0.016 | [8] -0.059 | entospletinib 0.006

APLP2 (UniProt Q06481)
inactive: nilotinib 0.005 | [1] -0.007 | dasatinib -0.025 | [2] -0.022 | [3] 0.044 | quisinostat 0.025 | tipifarnib 0.002 | [4] 0.006 | [5] 0.035 | [6] 0.013 | [7] -0.01 | vorinostat 0.081 | silmitasertib -0.001 | [8] -0.015 | entospletinib 0.017

ARID4B (UniProt Q4LE39)
inactive: nilotinib 0.059 | [1] -0.055 | dasatinib 0.005 | [2] 0.032 | [3] 0.024 | quisinostat -0.012 | tipifarnib -0.039 | [4] 0.029 | [5] -0.023 | [6] -0.036 | [7] 0.019 | vorinostat -0.015 | silmitasertib -0.019 | [8] -0.015 | entospletinib -0.055

ARHGEF10 (UniProt O15013)
inactive: nilotinib 0.139 | [1] -0.112 | dasatinib -0.029 | [2] -0.049 | [3] -0.12 | quisinostat -0.094 | tipifarnib -0.076 | [4] 0.08 | [5] -0.1 | [6] -0.032 | [7] 0.009 | vorinostat -0.291 | silmitasertib 0.021 | [8] 0.032 | entospletinib 0.08
